Test results taken from PMC6169833.
No constants are given. Whether binding was seen depends on the method and setting. Binding seen in cells or lysates may run through a third protein. Some entries that bind do so weakly or less than the wild type.

Amino acid sequences for entries named in this document (tags omitted). Residues count along the entry.
UniProt P49790, residues 1-608: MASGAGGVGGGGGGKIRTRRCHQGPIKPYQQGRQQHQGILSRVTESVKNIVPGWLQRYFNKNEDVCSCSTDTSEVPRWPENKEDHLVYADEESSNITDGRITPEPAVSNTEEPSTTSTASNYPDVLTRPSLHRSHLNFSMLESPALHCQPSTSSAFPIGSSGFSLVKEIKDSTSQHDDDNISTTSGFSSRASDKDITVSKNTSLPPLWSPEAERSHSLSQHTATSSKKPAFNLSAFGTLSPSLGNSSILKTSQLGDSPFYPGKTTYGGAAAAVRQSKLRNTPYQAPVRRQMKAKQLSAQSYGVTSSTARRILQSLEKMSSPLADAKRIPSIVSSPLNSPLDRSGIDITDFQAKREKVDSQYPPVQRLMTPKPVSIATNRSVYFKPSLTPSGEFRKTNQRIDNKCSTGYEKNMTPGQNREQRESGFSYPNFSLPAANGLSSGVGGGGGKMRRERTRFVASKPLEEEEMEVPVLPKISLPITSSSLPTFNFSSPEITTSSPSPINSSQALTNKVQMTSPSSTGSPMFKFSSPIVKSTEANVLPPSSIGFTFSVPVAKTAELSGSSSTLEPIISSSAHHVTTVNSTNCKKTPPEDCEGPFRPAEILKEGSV

Biological target: Nup153-N wild type (1- to 608-amino-acid N-terminal construct of Nup153), C-terminally Flag-tagged (human) (UniProt P49790)
Assay: co-IP; Flag-M2 agarose beads, lysates of HEK293T cells 72 h after transfection; buffer-1 (150 mM NaCl, 10 mM Tris-Cl pH 7.5, 0.1% Triton X-100, 1 mM EDTA, 0.25% NaDoC, 1 mM DTT); 2 h at 4°C, five washes; Western blotting

B1: endogenous Nup107 (protein, UniProt P57740 1-925)
chain: MDRSGFGEISSPVIREAEVTRTARKQSAQKRVLLQASQDENFGNTTPRNQVIPRTPSSFRQPFTPTSRSLLRQPDISCILGTGGKSPRLTQSSGFFGNLSMVTNLDDSNWAAAFSSQRSGLFTNTEPHSITEDVTISAVMLREDDPGEAASMSMFSDFLQSFLKHSSSTVFDLVEEYENICGSQVNILSKIVSRATPGLQKFSKTASMLWLLQQEMVTWRLLASLYRDRIQSALEEESVFAVTAVNASEKTVVEALFQRDSLVRQSQLVVDWLESIAKDEIGEFSDNIEFYAKSVYWENTLHTLKQRQLTSYVGSVRPLVTELDPDAPIRQKMPLDDLDREDEVRLLKYLFTLIRAGMTEEAQRLCKRCGQAWRAATLEGWKLYHDPNVNGGTELEPVEGNPYRRIWKISCWRMAEDELFNRYERAIYAALSGNLKQLLPVCDTWEDTVWAYFRVMVDSLVEQEIQTSVATLDETEELPREYLGANWTLEKVFEELQATDKKRVLEENQEHYHIVQKFLILGDIDGLMDEFSKWLSKSRNNLPGHLLRFMTHLILFFRTLGLQTKEEVSIEVLKTYIQLLIREKHTNLIAFYTCHLPQDLAVAQYALFLESVTEFEQRHHCLELAKEADLDVATITKTVVENIRKKDNGEFSHHDLAPALDTGTTEEDRLKIDVIDWLVFDPAQRAEALKQGNAIMRKFLASKKHEAAKEVFVKIPQDSIAEIYNQCEEQGMESPLPAEDDNAIREHLCIRAYLEAHETFNEWFKHMNSVPQKPALIPQPTFTEKVAHEHKEKKYEMDFGIWKGHLDALTADVKEKMYNVLLFVDGGWMVDVREDAKEDHERTHQMVLLRKLCLPMLCFLLHTILHSTGQYQECLQLADMVSSERHKLYLVFSKEELRKLLQKLRESSLMLLDQGLDPLGYEIQL
  binding: binds
